Test results from the supplement of paper PMC6411743.
± gives the standard deviation of the averaged measurements. The entries are a selection whose mix differs from that of the whole data set.

Amino acid sequences for entries named in this document (tags omitted). A change or cut given only in a name is not applied to a line headed by its entry.
UniProt Q9NVH2, whole entry: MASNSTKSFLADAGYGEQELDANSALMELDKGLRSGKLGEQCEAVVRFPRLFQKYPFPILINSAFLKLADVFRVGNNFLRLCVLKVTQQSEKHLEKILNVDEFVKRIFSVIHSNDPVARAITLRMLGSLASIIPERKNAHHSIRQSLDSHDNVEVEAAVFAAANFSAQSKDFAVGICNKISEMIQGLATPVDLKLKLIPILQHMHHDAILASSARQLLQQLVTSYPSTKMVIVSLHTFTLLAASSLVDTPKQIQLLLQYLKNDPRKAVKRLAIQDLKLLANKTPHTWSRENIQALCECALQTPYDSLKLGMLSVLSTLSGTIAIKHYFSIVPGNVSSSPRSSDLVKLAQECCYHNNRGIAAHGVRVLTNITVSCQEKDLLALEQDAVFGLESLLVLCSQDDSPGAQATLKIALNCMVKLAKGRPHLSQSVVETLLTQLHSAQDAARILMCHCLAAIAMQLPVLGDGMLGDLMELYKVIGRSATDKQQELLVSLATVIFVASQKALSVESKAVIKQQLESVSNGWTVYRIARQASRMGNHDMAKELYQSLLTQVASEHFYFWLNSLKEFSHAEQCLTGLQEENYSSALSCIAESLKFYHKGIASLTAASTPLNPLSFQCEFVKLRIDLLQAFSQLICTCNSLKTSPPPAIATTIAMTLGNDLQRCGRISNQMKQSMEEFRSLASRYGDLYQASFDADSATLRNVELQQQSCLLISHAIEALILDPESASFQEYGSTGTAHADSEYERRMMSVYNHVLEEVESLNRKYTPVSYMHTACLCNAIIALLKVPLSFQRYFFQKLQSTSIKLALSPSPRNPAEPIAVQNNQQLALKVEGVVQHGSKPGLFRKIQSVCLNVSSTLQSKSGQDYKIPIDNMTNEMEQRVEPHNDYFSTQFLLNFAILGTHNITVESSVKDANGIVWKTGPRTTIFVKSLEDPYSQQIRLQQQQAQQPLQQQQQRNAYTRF
UniProt Q9NSC5: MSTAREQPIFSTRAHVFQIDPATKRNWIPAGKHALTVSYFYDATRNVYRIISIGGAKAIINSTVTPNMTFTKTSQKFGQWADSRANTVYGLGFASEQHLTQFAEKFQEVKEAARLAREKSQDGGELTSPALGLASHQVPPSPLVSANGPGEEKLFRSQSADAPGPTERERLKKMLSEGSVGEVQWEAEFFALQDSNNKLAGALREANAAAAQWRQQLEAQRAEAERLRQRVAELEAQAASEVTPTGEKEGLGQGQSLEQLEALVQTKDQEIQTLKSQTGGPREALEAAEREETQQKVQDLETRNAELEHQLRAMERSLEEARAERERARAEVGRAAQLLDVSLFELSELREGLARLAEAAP
UniProt Q9NQW6: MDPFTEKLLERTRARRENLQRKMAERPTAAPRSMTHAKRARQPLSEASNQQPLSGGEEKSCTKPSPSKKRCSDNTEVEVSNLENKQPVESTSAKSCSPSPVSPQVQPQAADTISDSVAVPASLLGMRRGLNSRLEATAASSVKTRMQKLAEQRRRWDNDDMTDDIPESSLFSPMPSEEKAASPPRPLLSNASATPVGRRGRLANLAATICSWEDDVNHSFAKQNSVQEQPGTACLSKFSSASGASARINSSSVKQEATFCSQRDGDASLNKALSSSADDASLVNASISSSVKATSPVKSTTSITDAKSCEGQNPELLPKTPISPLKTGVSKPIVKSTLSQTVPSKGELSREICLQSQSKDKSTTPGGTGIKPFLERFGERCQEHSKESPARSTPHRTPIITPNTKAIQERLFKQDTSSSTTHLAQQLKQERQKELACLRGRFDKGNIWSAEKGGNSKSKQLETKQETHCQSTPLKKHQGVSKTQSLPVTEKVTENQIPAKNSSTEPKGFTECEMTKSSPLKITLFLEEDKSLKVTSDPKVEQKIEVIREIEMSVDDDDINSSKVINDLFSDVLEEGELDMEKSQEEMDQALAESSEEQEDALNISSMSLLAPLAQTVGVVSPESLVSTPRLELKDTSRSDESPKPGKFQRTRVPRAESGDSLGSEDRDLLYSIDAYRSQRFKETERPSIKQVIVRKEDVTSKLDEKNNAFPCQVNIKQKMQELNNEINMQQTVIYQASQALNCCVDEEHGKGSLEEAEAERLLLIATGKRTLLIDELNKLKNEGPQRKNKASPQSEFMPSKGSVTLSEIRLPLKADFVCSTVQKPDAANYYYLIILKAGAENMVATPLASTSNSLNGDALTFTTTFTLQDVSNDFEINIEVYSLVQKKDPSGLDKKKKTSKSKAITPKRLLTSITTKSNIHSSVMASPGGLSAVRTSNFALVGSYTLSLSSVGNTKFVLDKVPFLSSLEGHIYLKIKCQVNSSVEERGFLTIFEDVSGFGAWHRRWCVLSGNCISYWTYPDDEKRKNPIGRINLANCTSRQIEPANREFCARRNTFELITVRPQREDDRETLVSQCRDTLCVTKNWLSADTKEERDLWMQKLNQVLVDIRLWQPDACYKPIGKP
UniProt Q9NW82: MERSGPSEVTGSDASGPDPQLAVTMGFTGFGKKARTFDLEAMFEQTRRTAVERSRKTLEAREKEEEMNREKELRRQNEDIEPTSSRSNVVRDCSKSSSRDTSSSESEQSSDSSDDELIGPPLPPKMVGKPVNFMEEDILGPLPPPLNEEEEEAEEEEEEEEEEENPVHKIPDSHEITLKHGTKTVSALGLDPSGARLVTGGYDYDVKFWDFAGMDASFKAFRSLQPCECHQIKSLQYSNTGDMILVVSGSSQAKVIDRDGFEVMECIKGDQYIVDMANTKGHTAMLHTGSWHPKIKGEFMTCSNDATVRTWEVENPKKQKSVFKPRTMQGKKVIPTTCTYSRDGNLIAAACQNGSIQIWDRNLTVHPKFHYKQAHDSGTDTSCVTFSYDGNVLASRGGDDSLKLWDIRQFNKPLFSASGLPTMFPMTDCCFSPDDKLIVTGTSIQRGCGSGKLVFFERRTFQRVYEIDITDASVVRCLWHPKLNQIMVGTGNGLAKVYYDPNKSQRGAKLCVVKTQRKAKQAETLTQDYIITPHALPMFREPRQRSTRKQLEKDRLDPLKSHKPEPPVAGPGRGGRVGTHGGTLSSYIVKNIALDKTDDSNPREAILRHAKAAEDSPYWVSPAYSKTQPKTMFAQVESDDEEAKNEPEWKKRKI
UniProt Q9NWS6: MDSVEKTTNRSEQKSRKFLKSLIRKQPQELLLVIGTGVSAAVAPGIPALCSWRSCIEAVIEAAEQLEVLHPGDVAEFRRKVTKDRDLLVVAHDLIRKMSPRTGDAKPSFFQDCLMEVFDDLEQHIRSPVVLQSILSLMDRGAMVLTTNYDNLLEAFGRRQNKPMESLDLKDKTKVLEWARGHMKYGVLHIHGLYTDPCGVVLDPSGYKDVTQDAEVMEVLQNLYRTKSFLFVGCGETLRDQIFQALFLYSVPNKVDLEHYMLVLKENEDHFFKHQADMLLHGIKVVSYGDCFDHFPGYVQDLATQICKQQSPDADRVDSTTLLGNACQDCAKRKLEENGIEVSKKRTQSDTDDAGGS
UniProt Q9NR28: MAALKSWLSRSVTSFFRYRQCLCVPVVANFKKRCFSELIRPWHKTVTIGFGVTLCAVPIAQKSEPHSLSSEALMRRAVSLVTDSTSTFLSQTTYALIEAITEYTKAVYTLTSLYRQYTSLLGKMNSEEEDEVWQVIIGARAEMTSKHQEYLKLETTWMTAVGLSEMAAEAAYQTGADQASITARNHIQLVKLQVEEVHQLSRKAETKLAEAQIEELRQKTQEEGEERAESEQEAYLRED
UniProt Q9NX76: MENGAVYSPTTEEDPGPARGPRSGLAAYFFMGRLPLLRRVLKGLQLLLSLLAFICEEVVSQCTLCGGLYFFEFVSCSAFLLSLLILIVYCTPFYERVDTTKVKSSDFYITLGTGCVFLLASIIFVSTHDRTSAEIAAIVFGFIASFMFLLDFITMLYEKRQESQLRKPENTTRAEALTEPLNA
UniProt Q9P0B6: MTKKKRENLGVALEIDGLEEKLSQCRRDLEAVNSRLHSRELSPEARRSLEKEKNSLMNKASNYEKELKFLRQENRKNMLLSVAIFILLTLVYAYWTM
UniProt Q9NQT8: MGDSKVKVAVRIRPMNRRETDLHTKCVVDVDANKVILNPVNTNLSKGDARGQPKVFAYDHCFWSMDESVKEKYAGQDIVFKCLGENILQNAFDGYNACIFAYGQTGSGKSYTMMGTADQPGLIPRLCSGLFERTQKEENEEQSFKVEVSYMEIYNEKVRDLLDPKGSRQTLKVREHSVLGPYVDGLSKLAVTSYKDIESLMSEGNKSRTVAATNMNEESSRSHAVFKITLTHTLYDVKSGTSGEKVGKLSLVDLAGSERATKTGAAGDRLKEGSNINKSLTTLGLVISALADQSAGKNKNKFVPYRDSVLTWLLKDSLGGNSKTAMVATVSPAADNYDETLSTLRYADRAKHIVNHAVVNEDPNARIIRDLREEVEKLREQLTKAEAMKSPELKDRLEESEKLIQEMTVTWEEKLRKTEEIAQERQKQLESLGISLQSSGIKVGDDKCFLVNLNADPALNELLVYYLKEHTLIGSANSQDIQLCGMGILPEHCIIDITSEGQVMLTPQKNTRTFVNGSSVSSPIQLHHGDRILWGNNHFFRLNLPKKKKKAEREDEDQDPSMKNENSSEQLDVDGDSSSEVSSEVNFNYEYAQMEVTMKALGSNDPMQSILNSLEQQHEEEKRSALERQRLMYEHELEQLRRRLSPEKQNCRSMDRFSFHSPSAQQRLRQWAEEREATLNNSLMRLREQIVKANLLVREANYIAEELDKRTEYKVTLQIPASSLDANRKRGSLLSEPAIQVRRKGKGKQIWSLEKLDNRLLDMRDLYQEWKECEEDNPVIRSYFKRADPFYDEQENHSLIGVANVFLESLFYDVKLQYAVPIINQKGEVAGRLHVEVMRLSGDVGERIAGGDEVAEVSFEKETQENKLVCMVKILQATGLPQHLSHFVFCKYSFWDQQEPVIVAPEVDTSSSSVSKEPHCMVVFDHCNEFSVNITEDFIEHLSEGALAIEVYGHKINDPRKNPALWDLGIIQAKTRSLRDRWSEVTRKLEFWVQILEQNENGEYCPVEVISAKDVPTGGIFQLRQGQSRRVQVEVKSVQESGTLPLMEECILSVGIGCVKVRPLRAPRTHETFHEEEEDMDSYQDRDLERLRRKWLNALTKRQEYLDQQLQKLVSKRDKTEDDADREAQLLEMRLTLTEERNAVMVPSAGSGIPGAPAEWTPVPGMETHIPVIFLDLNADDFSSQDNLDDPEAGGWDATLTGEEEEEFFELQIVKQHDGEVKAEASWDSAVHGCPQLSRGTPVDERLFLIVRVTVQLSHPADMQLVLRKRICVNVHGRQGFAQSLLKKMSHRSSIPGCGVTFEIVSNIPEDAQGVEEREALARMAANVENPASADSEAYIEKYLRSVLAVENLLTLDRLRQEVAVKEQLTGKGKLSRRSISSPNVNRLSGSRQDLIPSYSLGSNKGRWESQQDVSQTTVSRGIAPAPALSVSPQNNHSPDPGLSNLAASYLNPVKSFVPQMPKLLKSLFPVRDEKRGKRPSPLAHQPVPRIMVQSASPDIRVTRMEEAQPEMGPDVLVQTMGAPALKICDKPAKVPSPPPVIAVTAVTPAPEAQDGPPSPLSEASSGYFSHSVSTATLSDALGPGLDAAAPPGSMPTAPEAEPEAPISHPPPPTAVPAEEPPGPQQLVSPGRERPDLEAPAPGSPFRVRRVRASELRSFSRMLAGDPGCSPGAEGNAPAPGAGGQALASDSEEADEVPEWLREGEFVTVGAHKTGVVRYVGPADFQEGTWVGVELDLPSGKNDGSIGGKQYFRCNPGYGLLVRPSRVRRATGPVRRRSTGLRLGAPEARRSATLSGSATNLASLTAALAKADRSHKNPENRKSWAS
UniProt Q9NVZ3: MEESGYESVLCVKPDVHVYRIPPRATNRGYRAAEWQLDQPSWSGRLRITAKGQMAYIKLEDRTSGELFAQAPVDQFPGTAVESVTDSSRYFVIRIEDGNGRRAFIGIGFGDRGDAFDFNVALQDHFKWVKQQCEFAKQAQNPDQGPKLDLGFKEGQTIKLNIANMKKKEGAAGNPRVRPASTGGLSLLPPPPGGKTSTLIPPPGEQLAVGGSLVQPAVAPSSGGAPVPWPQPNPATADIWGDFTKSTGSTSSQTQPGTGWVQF
UniProt Q9NQY0: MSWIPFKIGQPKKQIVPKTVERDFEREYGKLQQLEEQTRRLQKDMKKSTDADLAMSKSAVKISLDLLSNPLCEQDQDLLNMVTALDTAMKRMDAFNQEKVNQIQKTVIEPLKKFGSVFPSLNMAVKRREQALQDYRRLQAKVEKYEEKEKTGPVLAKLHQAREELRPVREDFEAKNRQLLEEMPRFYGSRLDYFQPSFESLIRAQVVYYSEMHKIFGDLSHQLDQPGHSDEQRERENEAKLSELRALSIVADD

Compound: Nc1ncnc2c1ncn2[C@@H]1O[C@H](COP(=O)(O)OP(=O)(O)OP(=O)(O)O)[C@@H](O)[C@H]1O [adenosine triphosphate]
Assay: NP40-soluble protein abundance relative to vehicle (solubility fold change) (ratio); higher = more soluble protein in presence of ATP
Method in brief: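 Each value is a fold change relative to the detergent-processed vehicle, calculated per replicate from vsn-normalised intensities. Jurkat crude lysate received eight concentrations (0.1 to 10 mM) for 10 min at room temperature and 3 min at 37 °C, then was solubilised in 0.8% NP40 with benzonase (60 min, 4 °C). The ultracentrifuged supernatant was TMT-labelled and run by LC-MS/MS in three independent experiments.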

Target | NP40-soluble protein abundance (concentration: 1mM) | NP40-soluble protein abundance (concentration: 2mM) | NP40-soluble protein abundance (concentration: 4mM) | NP40-soluble protein abundance (concentration: 6mM) | NP40-soluble protein abundance (concentration: 8mM) | NP40-soluble protein abundance (concentration: 10mM)
UniProt Q9NVH2 and related entries | 1.03 ± 0.078 | 1.02 ± 0.037 | 1.032 ± 0.0079 | 0.972 ± 0.036 | 1.06 ± 0.061 | 1.11 ± 0.027
HOMER3 (UniProt Q9NSC5) | 1.05 ± 0.054 | 1.04 ± 0.032 | 1.05 ± 0.045 | 1.09 ± 0.11 | 1.08 ± 0.012 | 1.12 ± 0.021
ANLN (UniProt Q9NQW6) | 0.986 ± 0.042 | 0.983 ± 0.032 | 0.962 ± 0.029 | 1 ± 0.016 | 0.947 ± 0.018 | 0.949 ± 0.014
WDR70 (UniProt Q9NW82) | 0.99 ± 0.04 | 0.984 ± 0.019 | 0.97 ± 0.026 | 0.967 ± 0.032 | 0.968 ± 0.033 | 0.985 ± 0.013
FAM118A (UniProt Q9NWS6) | 0.967 ± 0.045 | 0.97 ± 0.03 | 1 ± 0.023 | 0.943 ± 0.052 | 0.965 ± 0.095 | 0.941 ± 0.055
UniProt Q9NR28 and related entries | 0.871 ± 0.049 | 0.887 ± 0.036 | 0.877 ± 0.067 | 0.866 ± 0.07 | 0.887 ± 0.066 | 0.838 ± 0.077
GNL3L (UniProt Q9NVN8) | 0.993 ± 0.067 | 1.04 ± 0.015 | 1.03 ± 0.09 | 1.19 ± 0.22 | 1.19 ± 0.21 | 1.12 ± 0.063
CMTM6 (UniProt Q9NX76) | 0.9 ± 0.032 | 0.941 ± 0.048 | 0.907 ± 0.073 | 0.858 ± 0.039 | 0.898 ± 0.059 | 0.91 ± 0.024
UniProt Q9P0B6 | 0.863 ± 0.17 | 0.854 ± 0.058 | 0.791 ± 0.093 | 0.782 ± 0.16 | 0.733 ± 0.047 | 0.58 ± 0.29
KIF13B (UniProt Q9NQT8) | 1.03 ± 0.024 | 1.032 ± 0.0084 | 1.02 ± 0.024 | 0.999 ± 0.024 | 1.01 ± 0.016 | 1.01 ± 0.029
NECAP2 (UniProt Q9NVZ3) | 0.956 ± 0.025 | 0.969 ± 0.041 | 0.959 ± 0.025 | 0.961 ± 0.054 | 0.921 ± 0.027 | 0.959 ± 0.031
BIN3 (UniProt Q9NQY0) | 0.933 ± 0.11 | 0.962 ± 0.041 | 0.989 ± 0.14 | 0.974 ± 0.16 | 0.934 ± 0.12 | 0.866 ± 0.19
BSDC1 (UniProt Q9NW68) | 0.924 ± 0.024 | 0.913 ± 0.015 | 0.909 ± 0.013 | 0.969 ± 0.019 | 0.916 ± 0.051 | 0.873 ± 0.041

Only NP40-soluble protein abundance (concentration: 1mM) and NP40-soluble protein abundance (concentration: 4mM) (2 entries from above):
Target	NP40-soluble protein abundance (concentration: 1mM)	NP40-soluble protein abundance (concentration: 4mM)
KIF13B (UniProt Q9NQT8)	1.03 ± 0.024	1.02 ± 0.024
BIN3 (UniProt Q9NQY0)	0.933 ± 0.11	0.989 ± 0.14
